In paper PMC6282106, “Commercial drugs containing flavonoids are active in mice with malaria and in vitro against chloroquine-resistant Plasmodium falciparum” (Memórias do Instituto Oswaldo Cruz, 2018):

Test system: Plasmodium falciparum chloroquine-resistant clone (W2)
Type: cell-based

SMILES | Selectivity index (SI) MDL50 / IC50 | Selectivity index (SI) MDL50 / IC50 (listed as zinc oxide)
[O]=[Zn] [Zinc oxide] | ≥ 370 | 370
COc1ccc([C@@H]2CC(=O)c3c(O)cc(O[C@@H]4O[C@H](CO[C@@H]5O[C@@H](C)[C@H](O)[C@@H](O)[C@H]5O)[C@@H](O)[C@H](O)[C@H]4O)cc3O2)cc1O [Hesperidin] | Inactive | –
CC(=O)N[C@@H](CS)C(=O)O [N-Acetylcysteine] | Inactive | –

Where two headings read alike, the source gives them in different places.
